# Laboratory results reported in publication PMC7819943, “Rice protein-binding microarrays: a tool to detect cis-acting elements near promoter regions in rice”.
# The chains behind the UniProt entries cited, without tags or fusion partners.
# UniProt Q0JBA9, entry or part of it: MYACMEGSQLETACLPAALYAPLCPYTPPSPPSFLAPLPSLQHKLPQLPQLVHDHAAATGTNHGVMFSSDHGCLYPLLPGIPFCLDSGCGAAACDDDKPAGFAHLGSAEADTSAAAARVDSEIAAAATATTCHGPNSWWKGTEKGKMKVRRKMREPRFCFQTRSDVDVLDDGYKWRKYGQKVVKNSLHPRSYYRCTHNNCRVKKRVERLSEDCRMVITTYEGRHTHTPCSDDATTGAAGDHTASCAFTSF
# Some of the results follow.
# Target: OsWRKY34 (Oryza sativa, UniProt Q0JBA9 1-250)
# Assay: protein-binding microarray (RPBM); PBS, 2% BSA, 51.3 ng/ul salmon testes DNA, 50 uM zinc acetate, 200 nM TF, 25 C, 1 h; high values mean tight binding
# Details: protein: recombinant; tags: N-terminal polyhistidine and DsRed monomer fusion (pET32a); label: CyDye5-dUTP incorporated in the synthesized complementary strand; 3' TTTTT single-stranded linker to array surface; dsDNA, one strand shown
# How it was run: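 A custom Agilent array was converted to double-stranded form by primer extension with Cy5-dUTP and blocked with 2% BSA. Protein at 200 nM in PBS with 2% BSA, salmon testes DNA and 50 µM zinc acetate was applied for 1 h at 25 °C, followed by washing. The proteins were polyhistidine–DsRed N-terminal fusions of transcription factors, expressed in E. coli BL21-CodonPlus and Ni–NTA-purified. The binding signal is per-feature fluorescence intensity (arbitrary units) from an Axon 4000B scanner.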
row,Sequence,binding signal
1,GGCACCATCACTCCATCAGACCTTGGGTAATTCAAGCATACGGAGTCACCTAGTGCAG,9030 fluorescence intensity (a.u.)
2,TCTCGCTTTATCTTCGATTCTCCGTTTGCGCTATCGTAACCGGAGTCACCTAGTGCAG,9240 fluorescence intensity (a.u.)
3,AATCCATCTCCGATTCCCAGTCTGGTCAATCCGCCAGAAACGGAGTCACCTAGTGCAG,11400 fluorescence intensity (a.u.)
4,TAATTTTCTTTTATGTATATACTCCTTCCATACTTATAAACGGAGTCACCTAGTGCAG,8690 fluorescence intensity (a.u.)
5,GGTTTTCCCAACATAATCATCCTCTAACAAGCGCATCTTACGGAGTCACCTAGTGCAG,8790 fluorescence intensity (a.u.)
6,TAGATCTTCTTCTTCTTCTTCGCGTCACATTTGGATCTTCCGGAGTCACCTAGTGCAG,11900 fluorescence intensity (a.u.)
7,GATTTGACATTTTTGACTAAAAATTTTTGGGATCTAAACACGGAGTCACCTAGTGCAG,8390 fluorescence intensity (a.u.)
8,GACACACTAAGAGTTAATTAAACTCTTCACTCTCGTAGGCCGGAGTCACCTAGTGCAG,8180 fluorescence intensity (a.u.)
9,TATATATATATATATGCCTCAATGGTTTTGACCAGAAGCTCGGAGTCACCTAGTGCAG,9420 fluorescence intensity (a.u.)
10,TCTGGAGTTTCCGTGTTCAACTTTAATTATCCGTCTTATTCGGAGTCACCTAGTGCAG,10000 fluorescence intensity (a.u.)
11,TGTCACCTTCCGCTGTCATTTCTACGCCCACTCTCTCTTACGGAGTCACCTAGTGCAG,8950 fluorescence intensity (a.u.)
12,AACTTTGAGCAGTCGTTATTACTAGCTTCATTGTGGGGTTCGGAGTCACCTAGTGCAG,8300 fluorescence intensity (a.u.)
13,TCCTTGCTCGCCGCTCGCGTTCGTCGTCGTCTCGTCGTTTCGGAGTCACCTAGTGCAG,8930 fluorescence intensity (a.u.)
14,TTTGAAGCACTGAAATCTTTTCTGTTTTTGTTGTTTCGCTCGGAGTCACCTAGTGCAG,8390 fluorescence intensity (a.u.)
15,GTTAGTAATACTTGATGGTCTTTTCTCCTTGGCCTTTCGTCGGAGTCACCTAGTGCAG,10400 fluorescence intensity (a.u.)
16,CTGCTTTTTCTACCCTCGATATATATTGTGCTAGATACTACGGAGTCACCTAGTGCAG,12500 fluorescence intensity (a.u.)
17,TCTTTTTGTCCTTTGCTACTCTACCTATATATGCAAAGTTCGGAGTCACCTAGTGCAG,10300 fluorescence intensity (a.u.)
18,GGTCAGATTTTCACCTTTTGGTGGCAACGTTGTTTTGCCACGGAGTCACCTAGTGCAG,9060 fluorescence intensity (a.u.)
19,TTTGTCCAGAATCGTTGTCCTAAGTGGTGTCACATCCTCACGGAGTCACCTAGTGCAG,12000 fluorescence intensity (a.u.)
20,GTACACTCTCCACCATGTATTAATTTTTTTCATCCAATAACGGAGTCACCTAGTGCAG,11300 fluorescence intensity (a.u.)
21,TAGGCATGTTTGGTACGGCTCCAACTCTAGCTTCAACTCTCGGAGTCACCTAGTGCAG,8130 fluorescence intensity (a.u.)

# Random excerpt: 7 records from the list
row,Sequence,binding signal
21,TAGGCATGTTTGGTACGGCTCCAACTCTAGCTTCAACTCTCGGAGTCACCTAGTGCAG,8130 fluorescence intensity (a.u.)
1,GGCACCATCACTCCATCAGACCTTGGGTAATTCAAGCATACGGAGTCACCTAGTGCAG,9030 fluorescence intensity (a.u.)
3,AATCCATCTCCGATTCCCAGTCTGGTCAATCCGCCAGAAACGGAGTCACCTAGTGCAG,11400 fluorescence intensity (a.u.)
20,GTACACTCTCCACCATGTATTAATTTTTTTCATCCAATAACGGAGTCACCTAGTGCAG,11300 fluorescence intensity (a.u.)
17,TCTTTTTGTCCTTTGCTACTCTACCTATATATGCAAAGTTCGGAGTCACCTAGTGCAG,10300 fluorescence intensity (a.u.)
16,CTGCTTTTTCTACCCTCGATATATATTGTGCTAGATACTACGGAGTCACCTAGTGCAG,12500 fluorescence intensity (a.u.)
14,TTTGAAGCACTGAAATCTTTTCTGTTTTTGTTGTTTCGCTCGGAGTCACCTAGTGCAG,8390 fluorescence intensity (a.u.)

# Remaining list, next part.

row,Sequence,binding signal
1,GGAGGGAGACGGGTGGGGATCAGCCGCCGAGGACGGGGAGCGGAGTCACCTAGTGCAG,9110 fluorescence intensity (a.u.)
2,GAATCAATCTCACGTACGGTAAGTCTTTCATTTTCCTGCCCGGAGTCACCTAGTGCAG,8570 fluorescence intensity (a.u.)
3,TGTGTGTGGCCGCCTTAAACCCTAAACCCTCTCAACCATGCGGAGTCACCTAGTGCAG,8810 fluorescence intensity (a.u.)
4,TGACACCGTTGACTTTTCGACCAATGTTTGACCATTCGTTCGGAGTCACCTAGTGCAG,24400 fluorescence intensity (a.u.)
5,CGTTGCAAGGTGGTGTGAGTTGTTTTCCTGGATTCTTGAACGGAGTCACCTAGTGCAG,9750 fluorescence intensity (a.u.)
6,GTGGCCTCCGGCGAGGTCGAGCACCTCTTTCCTATCACGCCGGAGTCACCTAGTGCAG,8440 fluorescence intensity (a.u.)
7,AGTTCTCTGATTTTGGATGGGGATTTGCTTGATGGATCCGCGGAGTCACCTAGTGCAG,13200 fluorescence intensity (a.u.)
8,GGGGCTCACGCTGACTCCGCGTTATTGACTCGGGTCAAATCGGAGTCACCTAGTGCAG,9490 fluorescence intensity (a.u.)
9,TCTGGTCGTTACCTAATTTGCATGCTCGTTTCTTGTGGTGCGGAGTCACCTAGTGCAG,8540 fluorescence intensity (a.u.)
10,AACCCAACCAACGAAAAATTGCCGCGACCATCAGCTTGTCCGGAGTCACCTAGTGCAG,8570 fluorescence intensity (a.u.)
11,GGTCCCTATTAGGTTATCTTTTTGTTCTTGTAATGGTTATCGGAGTCACCTAGTGCAG,9590 fluorescence intensity (a.u.)
12,TCCACACACCCCGCTTGCTAACCAACCGTGACACGCAACCCGGAGTCACCTAGTGCAG,10100 fluorescence intensity (a.u.)
13,CTATGGTTTTTACTGGGCACTTGAGTTGTTGGGCTGGGCACGGAGTCACCTAGTGCAG,12300 fluorescence intensity (a.u.)
14,GGAGGAGGCTGGTAGGGGAGGCGGGAGTCCGGCGGCGAGGCGGAGTCACCTAGTGCAG,8640 fluorescence intensity (a.u.)
15,AAATTTTCATATCTCTCTCCTCCTTTTTTTCCCTTTTTCCCGGAGTCACCTAGTGCAG,9900 fluorescence intensity (a.u.)
16,GACAACCTGGAGCCCGACGACGACGAGGGGATGGGGAGGGCGGAGTCACCTAGTGCAG,8810 fluorescence intensity (a.u.)
17,GGGAGGGGCGGCGATCTCCATCTGGCGAGCGAGCAGAGCACGGAGTCACCTAGTGCAG,8510 fluorescence intensity (a.u.)
18,ACATGTACTCTAGGTCTCTAGTATCCTTGGCGCCGTTAAACGGAGTCACCTAGTGCAG,8650 fluorescence intensity (a.u.)
19,TAATGACGTTCTAGTGTCCCTGTTCGTTTTTCGTGTCACCCGGAGTCACCTAGTGCAG,12500 fluorescence intensity (a.u.)
20,ATGTCTATCAACCCTTTATTTATGTTATTGTTCATGTTTGCGGAGTCACCTAGTGCAG,9860 fluorescence intensity (a.u.)
21,GTACACGCCTACCACACTTATGTTATTACTGGTGGCTCTACGGAGTCACCTAGTGCAG,8970 fluorescence intensity (a.u.)

row,Sequence,binding signal
1,ACCCCACCTACACACTCTTCTTCCTCCTCTTCCTTCTTCTCGGAGTCACCTAGTGCAG,10100 fluorescence intensity (a.u.)
2,ACGCTGCAATGGCATCTTCCCCTGTCCTTCGCGTACGTGACGGAGTCACCTAGTGCAG,8340 fluorescence intensity (a.u.)
3,ACCCATTTTCAGGTTTTTTAGCTATATTTAATTAACCATGCGGAGTCACCTAGTGCAG,10800 fluorescence intensity (a.u.)
4,TTCCATTGGTATATTGTCTCATTGAGTTAGTATTGCTTTTCGGAGTCACCTAGTGCAG,9480 fluorescence intensity (a.u.)
5,GGTCGACTCCTTCTACCGCCGCGACCTCCCCGATCTCCTGCGGAGTCACCTAGTGCAG,9130 fluorescence intensity (a.u.)
6,CTCACAAACTTATGCTCCCTATTGTCATTTTGGTACCTATCGGAGTCACCTAGTGCAG,9340 fluorescence intensity (a.u.)
7,GTGTAAGTGGTAAGTTTGTTGCTTTGCAAATGCTTTGCATCGGAGTCACCTAGTGCAG,9870 fluorescence intensity (a.u.)
8,TTAATTGTTTTTGGGTCCAATCTTCTTTTTTTTTTGACATCGGAGTCACCTAGTGCAG,15300 fluorescence intensity (a.u.)
9,GACCTGGGCATGGGGAGGGAGTACTGGTCACCTTCACCACCGGAGTCACCTAGTGCAG,10600 fluorescence intensity (a.u.)
10,GACCATCTCGCGTCGCTCCTCCGGCCATCTCTTCAGTTCCCGGAGTCACCTAGTGCAG,10200 fluorescence intensity (a.u.)
11,CACTTTTGGTCAATATACACACTCCGTAATCACCCGGTACCGGAGTCACCTAGTGCAG,8180 fluorescence intensity (a.u.)
12,GCAGTTGGAATATTTTGTTTGGGTTCAGGTGCTACCATTGCGGAGTCACCTAGTGCAG,8210 fluorescence intensity (a.u.)
13,TACTTAATCTGATGTTATCTAGCTATCTTACACGTTATTTCGGAGTCACCTAGTGCAG,8830 fluorescence intensity (a.u.)
14,CTTATCTTTCTCCTCCAGCTTGCTACCTCGTCTTTCCTCCCGGAGTCACCTAGTGCAG,8180 fluorescence intensity (a.u.)
15,GTCGCCTATAAGTACCTGAGCCCGGGAGCACCGCTCTCTTCGGAGTCACCTAGTGCAG,8760 fluorescence intensity (a.u.)
16,GTTTGGGGTGTCAAATGTCCGGTATTATAGTTTAAGTGGGCGGAGTCACCTAGTGCAG,8860 fluorescence intensity (a.u.)
17,GCCTCCACTTCCCTTTTGGCCGTCCATCTCTCCTCTCCTCCGGAGTCACCTAGTGCAG,11000 fluorescence intensity (a.u.)
18,ACGCCGTCGCCGTCCATGTACCATCGATCGTGCACGATCCCGGAGTCACCTAGTGCAG,10800 fluorescence intensity (a.u.)
19,TGTTTCTACCTGTTTTGTAGGGATGTGATGCGTCAGTTTTCGGAGTCACCTAGTGCAG,9440 fluorescence intensity (a.u.)
20,TCTAAGATTTGCTCAATTGCTAGTCTGGTTCTGTTCCCGACGGAGTCACCTAGTGCAG,8140 fluorescence intensity (a.u.)
21,TACTGTATAGTTGTTACAACTTCCTTTTTAATTATTCAATCGGAGTCACCTAGTGCAG,8060 fluorescence intensity (a.u.)

row,Sequence,binding signal
1,CCTTTTGTACGTTTTTTTTTTCCTTTTTTCTTTCGAGAACCGGAGTCACCTAGTGCAG,10100 fluorescence intensity (a.u.)
2,CAATTTCGAGCTTCGTATCAGCATATGCTATTCCCTATTGCGGAGTCACCTAGTGCAG,10500 fluorescence intensity (a.u.)
3,AGTTGGATAGTTACATATGAATTTTTTTTCTACCACATTCCGGAGTCACCTAGTGCAG,11700 fluorescence intensity (a.u.)
4,ATATATATATATATATATATATATATATATATAGGGACAGCGGAGTCACCTAGTGCAG,9530 fluorescence intensity (a.u.)
5,TAATTCCCTGCATCATGCCTCTATTCCGGTATGACTTGCTCGGAGTCACCTAGTGCAG,8690 fluorescence intensity (a.u.)
6,ATGTACCGTTCACACCTATTTTATCACGTGTCCTTGTGCCCGGAGTCACCTAGTGCAG,9170 fluorescence intensity (a.u.)
7,ATAAGAGCGGTGAAGTCGGCTGTGGCGTTGACCACCGACGCGGAGTCACCTAGTGCAG,11100 fluorescence intensity (a.u.)
8,TTTAGATCCCACTCCAAAATTTTACATGCTGTCACATCAACGGAGTCACCTAGTGCAG,8300 fluorescence intensity (a.u.)
9,CCACTGTTCACTCTAATTTTGGCCGTCCGATCCTTCCGCGCGGAGTCACCTAGTGCAG,11400 fluorescence intensity (a.u.)
10,TTTCACTTTGACTAGAAGCACATGTCATCGATTTTCCTTCCGGAGTCACCTAGTGCAG,9470 fluorescence intensity (a.u.)
11,CGAATATGTATAAAAATCCTTGTCCCTGTCTATTTTACCTCGGAGTCACCTAGTGCAG,8390 fluorescence intensity (a.u.)
12,ATGCATCTTGCGCGCCCACGTACGCTCCATCATCTCTGGACGGAGTCACCTAGTGCAG,9110 fluorescence intensity (a.u.)
13,CGCCCACCCACGCATCCATCCATCGATCGCAGCCAAATTCCGGAGTCACCTAGTGCAG,9430 fluorescence intensity (a.u.)
14,GCATCACTGCCTCACTGGCTCACTGCATCAGTTGATCGCCCGGAGTCACCTAGTGCAG,9160 fluorescence intensity (a.u.)
15,CCAGCCGGCACGCCGATCCGATCCGTCCCACCCACCCACGCGGAGTCACCTAGTGCAG,8460 fluorescence intensity (a.u.)
16,ACTACGACCAAATCACGCACCTTCGCTCTCTTTTCCATTGCGGAGTCACCTAGTGCAG,12700 fluorescence intensity (a.u.)
17,ACTTTATATAGCTCACCTATCATGACAAACTCTATTAATTCGGAGTCACCTAGTGCAG,10800 fluorescence intensity (a.u.)
18,GCTTATCAAATTTTGCAGAGGACTTCTACCAATCCGGGCCCGGAGTCACCTAGTGCAG,9860 fluorescence intensity (a.u.)
19,CTTCTTGATTGATTTATACTAACTGCGCACACACTTTATTCGGAGTCACCTAGTGCAG,8490 fluorescence intensity (a.u.)
20,TCAAACCTTCCAACGCGTGAAGAGTCCGCGTCCATACATACGGAGTCACCTAGTGCAG,8720 fluorescence intensity (a.u.)
21,CTGCCGCCTACAACAACCGCGCGCTATCCAATGGAGGAAACGGAGTCACCTAGTGCAG,8070 fluorescence intensity (a.u.)
